Assay: Proteomic analysis of native murine pancreata and decelled pancreatic ECM (Table 1)
Design: species or system mouse
Conditions: for Pancreatic ECM: Mean of log2(intensities): abundance of the listed protein in decelled pancreatic ECM; for Native pancreas tissue: Mean of log2(intensities): abundance of the listed protein in native murine pancreas tissue

Molecule	Pancreatic ECM: Mean of log2(intensities)	Native pancreas tissue: Mean of log2(intensities)
Q8K224 (protein, UniProt Q8K224 1-1024, looked up, full-length) MNRKKVDNRIRILIENGVAERQRSLFVVVGDRGKDQVVILHHMLSKATVKARPSVLWCYKKELGFSSHRKKRMRQLQKKIKSGTLNLKQDDPFELFVAATNIRYCYYNETHKILGNTFGMCVLQDFEALTPNLLARTVETVEGGGLVVILLRTMNSLKQLYTMTMDVHSRYRTEAHQDVVGRFNERFILSLASCKKCLVIDDQLDILPISSHVASIEALPPQAPDENLSPAALELLELKESLQDTQPVGVLVDCCKTLDQAKAVLKFIEGISEKTLRSTVALTAARGRGKSAALGLAIAGAVAFGYSNIFVTSPSPDNLHTLFEFVFKGFDALQYQEHLDYEIVQSLNPEFNKAVIRVNVFREHRQTIQYIHPADAVKLGQAELVVIDEAAAIPLPLVKSLLGPYLVFMASTINGYEGTGRSLSLKLIQQLRQQSAQSQVSTTAENKTTTTARLASARTLHEVSLQESIRYAPGDAVEKWLNDLLCLDCLNITRIVSGCPLPEACELYYVNRDTLFCYHKASEVFLQRLMALYVASHYKNSPNDLQMLSDAPAHHLFCLLPPVPPTQNALPEVLAVVQVCLEGEISRQSILNSLSRGKKASGDLIPWTVSEQFQDPDFGGLSGGRVVRIAVHPDYQGMGYGSRALQLLQMYYEGKFPCLEEKVLETPQEIRTVSSEAVSLLEEVITPRKDLPPLLLKLNERPAERLDYLGVSYGLTPRLLKFWKRAGFVPVYLRQTPNDLTGEHSCIMLKTLADEDEAEQGAWLAAFWKDFRRRFLALLSYQFSTFSPALSLNIIQNRNVAKSALPALGREHLEALFLPYDLKRLEMYSRNMVDYHLIMDLIPAISRLYFLNQLGDLSLSAAQSALLLGIGLQHKSVDQLEKEIELPSGQLMGLFNRIIRKVVKLFNDVQEKAIEEQMVAVKDVVMEPTMKTLSDDLDEAAKEFQEKHKKEVGKLKDMDLSQYVIRGDDEEWNEVLSKAGQNASIVSLKSDKKRKLETKQEPKQSKKLKKRDNNRKDMKLKRKK	25.63 a.u.	21.07 a.u.
Q9WVC3 (protein, UniProt Q9WVC3 1-162, looked up, full-length) MGLETEKADVQLFMADDAYSHHSGVDYADPEKYVDSSHDRDPHQLNSHLKLGFEDLIAEPETTHSFDKVWICSHALFEISKYVMYKFLTVFLAIPLAFIAGILFATLSCLHIWILMPFVKTCLMVLPSVQTIWKSVTDVVIGPLCTSVGRSFSSVSMQLSHD	25.62 a.u.	21.09 a.u.
Q9JJ80 (protein, UniProt Q9JJ80 1-306, looked up, full-length) MDALDKVLKPKTKRAKRFLEKREPKLTENIKNAMLIKGGNANATVTQVLRDMYALKKPYGVLYKKKNITRPFEDQTSLEFFSKKSDCSLFMFGSHNKKRPNNLVIGRMYDYHVLDMIELGIEKFVSLKDIKTSKCPEGTKPMLIFAGDDFDVTEDFRRLKNLLIDFFRGPTVSNVRLAGLEYVLHFTALNGKVYFRSYKLLLKKSGCRTPRIELEEMGPSLDLVMRRTHLASDDLYKLSMKVPKALKPKKRKNISQDTFGTTFGRIHMQKQDLSKLQTRKMKGLKKRPAENGVDDQGKKSKRIKKN	26.78 a.u.	22.28 a.u.
P20918 (protein, UniProt P20918 1-812, looked up, full-length) MDHKEVILLFLLLLKPGQGDSLDGYISTQGASLFSLTKKQLAAGGVSDCLAKCEGETDFVCRSFQYHSKEQQCVIMAENSKTSSIIRMRDVILFEKRVYLSECKTGIGNGYRGTMSRTKSGVACQKWGATFPHVPNYSPSTHPNEGLEENYCRNPDNDEQGPWCYTTDPDKRYDYCNIPECEEECMYCSGEKYEGKISKTMSGLDCQAWDSQSPHAHGYIPAKFPSKNLKMNYCRNPDGEPRPWCFTTDPTKRWEYCDIPRCTTPPPPPSPTYQCLKGRGENYRGTVSVTVSGKTCQRWSEQTPHRHNRTPENFPCKNLEENYCRNPDGETAPWCYTTDSQLRWEYCEIPSCESSASPDQSDSSVPPEEQTPVVQECYQSDGQSYRGTSSTTITGKKCQSWAAMFPHRHSKTPENFPDAGLEMNYCRNPDGDKGPWCYTTDPSVRWEYCNLKRCSETGGSVVELPTVSQEPSGPSDSETDCMYGNGKDYRGKTAVTAAGTPCQGWAAQEPHRHSIFTPQTNPRAGLEKNYCRNPDGDVNGPWCYTTNPRKLYDYCDIPLCASASSFECGKPQVEPKKCPGRVVGGCVANPHSWPWQISLRTRFTGQHFCGGTLIAPEWVLTAAHCLEKSSRPEFYKVILGAHEEYIRGLDVQEISVAKLILEPNNRDIALLKLSRPATITDKVIPACLPSPNYMVADRTICYITGWGETQGTFGAGRLKEAQLPVIENKVCNRVEYLNNRVKSTELCAGQLAGGVDSCQGDSGGPLVCFEKDKYILQGVTSWGLGCARPNKPGVYVRVSRFVDWIEREMRNN	26.25 a.u.	21.76 a.u.
Q3UN02 (protein, UniProt Q3UN02 1-376, looked up, full-length) MVSWKGIYFILFLFAGSFFGSIFMLGPILPLMFINLSWYRWISSRLVATWLTLPVALLETMFGVRVVITGDAFVPGERSVIIMNHRTRVDWMFLWNCLMRYSYLRVEKICLKSSLKSVPGFGWAMQVAAFIFIHRKWKDDKSHFEDMIDYFCAIHEPLQLLIFPEGTDLTENNKARSNDFAEKNGLQKYEYVLHPRTTGFTFVVDRLREGKNLDAVHDITVAYPYNIPQTEKHLLLGDFPKEIHFHVQRYPADSLPTSKEDLQLWCHRRWEEKEERLRSFYQGEKNFHFTGQSTVPPCKSELRVLVVKLLSIVYWALFCSAMCLLIYLYSPVRWYFIISIVFFVLQERIFGGLEIIELACYRFLHKHPHLNSKKNE	26.12 a.u.	21.97 a.u.
Q3UUQ7 (protein, UniProt Q3UUQ7 1-922, looked up, full-length) MFLHSVNLWNLAFYVFMVFLATLGLWDVFFGFEENKCSMSYMFEYPEYQKIELPKKLTKRYPAYELYLYGEGSYAEEHKILPLTGIPVLFLPGNAGSYKQVRSIGSIALRKAEDIDFKYHFDFFSVNFNEELVALYGGSLQKQTKFVHECIKAILKLYKGQEFAPTSVAIIGHSMGGLVARALLTLKNFKQDLINLLVTQATPHVAPVMPLDRFITEFYMNVNNYWILNARHINLTTLSVAGGFRDYQVRSGLTFLPKLSHYTSALSVVSSAVPKTWVSTDHLSIVWCKQLQLTTIRAFFDLIDADTKQITQKPKKKLSVLNHHFIRHPAKQFEENPSIISDLTGTSMWVPVKVSRWSYVAYNESDKIYFAFPLANHRKIYTHAYCQSTMLDTNSWIFGCINSTSMCRQGVDLSWKAELLPTIKSLTLRLQDYPSLSHIVVYVPSVHGSKFVVDCEFFKKEARSMQLPVTHLFSFGLSSRKVTLNTNGLYYNIELLNFGQIYQAFKVNVVSKCTGSKEEITSIYKLHIPWSYEDSLTIAQVPSSTDISLKLHVAQPENDSHVALLKMYTSSDCQYEVTIKTSFPQILGQVVRFHGGALPAYVVSSILLAYGGQLYSLLSTGYCLEYSTILDKEAKPYKVDPFVIMIKFLLGYKWFKELWDAVLLPELDAIVLTSQSMCFPLVSLILFLFGTCTAYWSGLLSSTSVQLLSSLWLALKRPAELPKDIKVMSPDLPVLTVVFLIVSWTTCGALAILLSYLYYVFKVVHLQASLTTFKNNQPVNPKHSRRSEKKSNHHKDSAVQSLRLCANDAEDSLRMHSTVINLLTWVVLLSMPSLIYWLKNLRYYFKLSPDPCKPLAFLLIPAIAILGNTHTVSVKSSKLLKTVSQFPLPLAVGVIAFGSSHLYRVPCFVIIPLVFHALCNFM	26.09 a.u.	22.01 a.u.
Q91W34 (protein, UniProt Q91W34 1-466, looked up, full-length) MADAASLRAPLCTEQFGSGAPRGCSAAADGSLQWDGARRWGWLSRAPIAKPGQHAGGGGGPWAALTALSGLRSVLLPQGFPDSVSPDYLPYQLWDSVQAFASSLSGSLATQAVLQGLGVGNAKASVSAATSTWLVKDSTGMLGRIILAWWKGSKLDCNAKQWRLFADILNDVAMFLEIMAPMYPIFFTMTVSTSNLAKCIVGVAGGATRAALTMHQARRNNMADVSAKDSSQETVVNLAGLLVSLLMLPLVSDCPSLSLGCFVLLTALHIYANYRAVRALVLETLNESRLQLVLEHFLQRGEVLEPASANQMEPLWTGFWPSLSLSLGVPLHHLVSSVSELKQLVEGHHEPYLLCWNKSRNQVQVALSQEAGPETVLRAATHGLILGALQEDGPLPGELAELRHQVQADPKKESWILVRETHQVLDTLFPKFLKGLQAAGWKTEKHHLEVDEWRATWPLSPEKKVL	26.01 a.u.	21.99 a.u.
Q8BPS4 (protein, UniProt Q8BPS4 1-441, looked up, full-length) MGGLRLLAVALTCSCWWPQGGQGKTLRGSFSSAAARDAQGQSIGHFEFHGDHALLCVRINNVAVAVGKEAKLYLFQAQEWLKLLESSPGYSCSERLARAQLTVTVTQTEHNLTVSQLPAPQTWRVFYADKFTCRDDSESPQGEEIPFEMVLLNPDAEGNPLDHFSARESGLHEFFFLLVLVYFVTACIYAQSLWQAMKKGGPMHTILKVLTTALLLQAASALANYIHLSRYSRDGLGVPLIGSLAEVFDIASQIQMLYLLLSLCMGWTIVRMKKSQSRPLQWDSTPASTGIAVFIVITQSILLLWEQFEDTSHHSAHSHRSLAGLLLIVLRICLALSLGCGLYQVITVERSALKREFYITFAKGCILWFLCQPALACIAVAFNDYQRDKLITVGVILCQAVAMVILYRLFLSHSLYWEVSSLSSVTLPLTISSAHRGRPHF	26.07 a.u.	22.09 a.u.
Q5U458 (protein, UniProt Q5U458 1-559, looked up, full-length) MATALSEEELDNEDYYSLLNVRREASSEELKAAYRRLCMLYHPDKHRDPELKSQAERLFNLVHQAYEVLSDPQTRAIYDIYGKRGLEMEGWEVVERKRTPAEIREEFERLQREREERRLQQRTNPKGTISVGVDATDLFDRYDEEYEDVSGSGFPQIEINKMHISQSIEAPLTATDTAILSGSLSTQNGNGGGSVNFALRRVTSAKGWGELEFGAGDLQGPLFGLKLFRNLTPRCFVTTNCALQFSSRGIRPGLTTVLARNLDKNTVGYLQWRWGIQSAMNTSIVRDTKTCHFTVALQLGIPHSFALISYQHKFQDDDQTRVKGSLKAGFFGTIVEYGAERKISRHSVLGAAVSIGVPQGVSLKVKLNRASQTYFFPIHLTDQLLPSAVFYATVGPLVVYLAVHRLIIRPYLRAQKEKELEKQRENTASDILQKKQEAEAAVRLMQESVRRIIEAEESRMGLIIVNAWYGKFVNDKSRKNEKVKVIDVTVPLQCLVKDSKLILTEASKAGLPGFYDPCVGEEKSLRVLYQFRGVLHQVMVPDSEALRIPKQSHRIDTDG	26.03 a.u.	22.08 a.u.

Reference: patent US20240108662A1, “ENGINEERED CELLS FUNCTIONALIZED WITH IMMUNE CHECKPOINT MOLECULES AND USES THEREOF” (The University of North Carolina at Chapel Hill, priority 2020, published 2024)
